{"sequences": {"note": "Protein sequences, listed by entry. Tags and fused reporters are not part of them.", "UniProt Q9H792": "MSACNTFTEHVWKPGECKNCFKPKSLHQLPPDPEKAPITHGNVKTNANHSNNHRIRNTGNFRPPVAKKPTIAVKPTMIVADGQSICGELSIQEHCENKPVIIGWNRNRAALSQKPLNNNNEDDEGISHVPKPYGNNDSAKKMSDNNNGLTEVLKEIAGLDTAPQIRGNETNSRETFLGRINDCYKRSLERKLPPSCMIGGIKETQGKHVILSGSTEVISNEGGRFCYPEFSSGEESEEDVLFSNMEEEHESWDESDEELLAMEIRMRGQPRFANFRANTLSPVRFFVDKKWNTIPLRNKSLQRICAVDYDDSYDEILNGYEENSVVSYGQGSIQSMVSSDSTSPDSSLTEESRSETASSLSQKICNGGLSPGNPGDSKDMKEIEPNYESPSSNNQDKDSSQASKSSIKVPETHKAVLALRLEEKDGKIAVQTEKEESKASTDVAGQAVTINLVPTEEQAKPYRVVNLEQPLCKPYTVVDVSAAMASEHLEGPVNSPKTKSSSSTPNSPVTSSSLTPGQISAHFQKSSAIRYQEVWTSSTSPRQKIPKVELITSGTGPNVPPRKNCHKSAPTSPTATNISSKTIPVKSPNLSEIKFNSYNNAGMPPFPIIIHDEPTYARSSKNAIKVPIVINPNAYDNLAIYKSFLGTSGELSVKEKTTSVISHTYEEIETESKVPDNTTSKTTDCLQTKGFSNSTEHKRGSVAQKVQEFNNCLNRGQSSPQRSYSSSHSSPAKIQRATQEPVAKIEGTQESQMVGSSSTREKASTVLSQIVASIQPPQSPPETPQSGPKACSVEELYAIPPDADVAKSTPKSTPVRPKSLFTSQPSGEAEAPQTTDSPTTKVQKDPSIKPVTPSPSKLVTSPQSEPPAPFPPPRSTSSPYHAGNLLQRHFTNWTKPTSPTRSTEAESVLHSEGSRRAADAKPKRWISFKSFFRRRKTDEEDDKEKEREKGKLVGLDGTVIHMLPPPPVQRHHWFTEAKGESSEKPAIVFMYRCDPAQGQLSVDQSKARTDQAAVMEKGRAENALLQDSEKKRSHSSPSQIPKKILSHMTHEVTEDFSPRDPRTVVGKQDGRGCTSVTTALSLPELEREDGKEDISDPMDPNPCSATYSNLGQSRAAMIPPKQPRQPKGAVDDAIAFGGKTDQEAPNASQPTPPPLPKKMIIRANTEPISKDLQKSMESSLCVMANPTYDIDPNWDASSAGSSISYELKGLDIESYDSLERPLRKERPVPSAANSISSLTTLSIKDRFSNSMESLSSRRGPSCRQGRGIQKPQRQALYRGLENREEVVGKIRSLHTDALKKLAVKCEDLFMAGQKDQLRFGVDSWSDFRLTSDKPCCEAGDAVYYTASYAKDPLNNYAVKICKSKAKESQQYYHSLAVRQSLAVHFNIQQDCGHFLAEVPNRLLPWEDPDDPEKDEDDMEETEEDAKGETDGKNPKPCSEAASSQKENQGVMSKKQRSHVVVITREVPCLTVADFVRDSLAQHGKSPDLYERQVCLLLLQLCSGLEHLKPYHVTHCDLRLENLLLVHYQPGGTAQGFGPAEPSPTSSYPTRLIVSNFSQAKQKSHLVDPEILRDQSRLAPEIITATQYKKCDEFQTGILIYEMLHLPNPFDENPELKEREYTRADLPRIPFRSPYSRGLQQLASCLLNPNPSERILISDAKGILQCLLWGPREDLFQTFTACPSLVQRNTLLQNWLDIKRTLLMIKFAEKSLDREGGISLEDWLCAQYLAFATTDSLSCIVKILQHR"}, "source": "paper PMC5660093", "about": "“Structure of SgK223 pseudokinase reveals novel mechanisms of homotypic and heterotypic association” (Nature Communications, 2017)", "key": {"[1]": {"molecular_target": "T1, HA-tagged FL SgK223 W1382A (MCF-10A SgK223 KO) (UniProt Q86YV5)", "T1 sequence": "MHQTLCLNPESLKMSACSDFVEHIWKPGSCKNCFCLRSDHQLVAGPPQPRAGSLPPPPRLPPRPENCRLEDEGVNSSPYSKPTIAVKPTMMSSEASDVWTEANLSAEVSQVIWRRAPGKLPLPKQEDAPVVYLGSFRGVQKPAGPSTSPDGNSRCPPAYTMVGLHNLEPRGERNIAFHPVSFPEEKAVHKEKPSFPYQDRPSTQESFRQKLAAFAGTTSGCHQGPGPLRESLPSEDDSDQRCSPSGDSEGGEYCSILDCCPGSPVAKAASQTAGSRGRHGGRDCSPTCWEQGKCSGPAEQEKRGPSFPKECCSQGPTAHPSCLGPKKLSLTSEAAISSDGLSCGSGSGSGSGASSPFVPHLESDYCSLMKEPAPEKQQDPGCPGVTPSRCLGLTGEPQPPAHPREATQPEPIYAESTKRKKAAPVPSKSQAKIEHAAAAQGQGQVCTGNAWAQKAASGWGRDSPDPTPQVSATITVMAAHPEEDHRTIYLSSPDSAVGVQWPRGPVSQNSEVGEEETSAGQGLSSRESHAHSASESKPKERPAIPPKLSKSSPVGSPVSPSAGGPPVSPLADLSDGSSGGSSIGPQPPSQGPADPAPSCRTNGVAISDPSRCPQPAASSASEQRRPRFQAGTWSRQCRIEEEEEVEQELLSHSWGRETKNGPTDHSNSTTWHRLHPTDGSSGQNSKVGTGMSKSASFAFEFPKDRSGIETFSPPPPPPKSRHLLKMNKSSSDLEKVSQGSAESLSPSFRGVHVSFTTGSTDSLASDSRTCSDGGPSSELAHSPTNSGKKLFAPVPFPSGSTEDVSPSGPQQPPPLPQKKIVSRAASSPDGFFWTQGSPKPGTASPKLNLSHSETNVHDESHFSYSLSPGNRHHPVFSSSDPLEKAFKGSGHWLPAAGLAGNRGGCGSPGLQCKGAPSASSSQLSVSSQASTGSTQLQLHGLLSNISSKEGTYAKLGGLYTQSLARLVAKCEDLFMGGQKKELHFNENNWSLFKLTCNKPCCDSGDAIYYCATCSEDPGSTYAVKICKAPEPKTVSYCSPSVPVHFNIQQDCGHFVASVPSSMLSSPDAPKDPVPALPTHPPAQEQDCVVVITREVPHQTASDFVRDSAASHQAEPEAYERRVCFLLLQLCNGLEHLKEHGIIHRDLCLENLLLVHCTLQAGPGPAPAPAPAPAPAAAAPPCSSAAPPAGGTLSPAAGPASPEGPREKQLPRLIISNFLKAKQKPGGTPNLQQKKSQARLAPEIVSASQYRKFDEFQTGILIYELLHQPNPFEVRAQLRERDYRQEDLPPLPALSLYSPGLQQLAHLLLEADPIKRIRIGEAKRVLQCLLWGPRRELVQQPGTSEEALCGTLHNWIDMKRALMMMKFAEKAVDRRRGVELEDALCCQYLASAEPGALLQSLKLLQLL", "assay": "co-IP; HA-tagged FL SgK223 WT or mutants expressed in MCF-10A SgK223 KO cells; immunoprecipitation with anti-HA, blot with anti-SgK269 for the endogenous protein"}, "[2]": {"molecular_target": "T2, HA-tagged FL SgK223 Y1282A (MCF-10A SgK223 KO) (UniProt Q86YV5)", "T2 sequence": "T1 sequence with Y1282A, A1382W", "assay": "co-IP; HA-tagged FL SgK223 WT or mutants expressed in MCF-10A SgK223 KO cells; immunoprecipitation with anti-HA, blot with anti-SgK269 for the endogenous protein"}}, "note": "Residue numbers refer to the chain shown, from its start. No constants are given. Whether binding was seen depends on the method and setting. Binding seen in cells or lysates may run through a third protein. Some binding calls cover weakened binding; strength is not graded here. Where a sequence is shown, tags or fusion partners need not be part of it.", "data": [{"substance": "endogenous FL SgK269-WT (from UniProt Q9H792 1-1746)", "values": [{"measurement": "binding", "setting": "[1]", "result": "no binding"}, {"measurement": "binding", "setting": "[2]", "result": "binds"}]}]}
